In the supplement of paper PMC10849652:
The list shows a part of the results.

Protein sequences, listed by entry. Tags and fused reporters are not part of them. Lines headed by an entry give the natural chain unless they say otherwise; changes in a name come on top.
UniProt Q8N3C7: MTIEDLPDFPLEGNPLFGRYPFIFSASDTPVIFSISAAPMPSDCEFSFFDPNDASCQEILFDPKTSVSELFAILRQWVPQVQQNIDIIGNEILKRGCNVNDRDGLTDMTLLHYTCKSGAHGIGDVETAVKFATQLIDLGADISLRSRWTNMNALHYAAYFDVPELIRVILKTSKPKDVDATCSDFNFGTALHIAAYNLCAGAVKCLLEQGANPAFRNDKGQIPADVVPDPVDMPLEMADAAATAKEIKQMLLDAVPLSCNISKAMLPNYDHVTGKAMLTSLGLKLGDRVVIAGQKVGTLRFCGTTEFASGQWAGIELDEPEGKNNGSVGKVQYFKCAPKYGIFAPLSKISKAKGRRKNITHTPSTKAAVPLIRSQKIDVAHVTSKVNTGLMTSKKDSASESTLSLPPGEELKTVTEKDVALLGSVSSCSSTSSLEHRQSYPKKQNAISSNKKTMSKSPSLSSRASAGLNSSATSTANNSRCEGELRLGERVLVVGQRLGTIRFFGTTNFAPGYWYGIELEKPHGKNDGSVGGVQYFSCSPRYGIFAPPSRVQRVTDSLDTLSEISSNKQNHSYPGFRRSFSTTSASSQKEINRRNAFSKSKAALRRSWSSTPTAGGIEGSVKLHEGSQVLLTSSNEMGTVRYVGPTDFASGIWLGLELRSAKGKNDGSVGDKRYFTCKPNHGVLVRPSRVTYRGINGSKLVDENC
UniProt P09496: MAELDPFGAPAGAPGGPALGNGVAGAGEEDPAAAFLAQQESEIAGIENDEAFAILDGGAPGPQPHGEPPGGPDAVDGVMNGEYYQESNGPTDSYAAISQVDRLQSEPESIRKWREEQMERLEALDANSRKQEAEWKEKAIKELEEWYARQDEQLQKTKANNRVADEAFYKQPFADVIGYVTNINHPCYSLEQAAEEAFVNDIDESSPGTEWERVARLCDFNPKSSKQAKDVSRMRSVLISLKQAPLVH
UniProt Q7Z7K0: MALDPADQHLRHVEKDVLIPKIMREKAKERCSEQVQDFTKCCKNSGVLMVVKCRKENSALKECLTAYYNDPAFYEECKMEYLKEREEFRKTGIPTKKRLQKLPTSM
UniProt P54105: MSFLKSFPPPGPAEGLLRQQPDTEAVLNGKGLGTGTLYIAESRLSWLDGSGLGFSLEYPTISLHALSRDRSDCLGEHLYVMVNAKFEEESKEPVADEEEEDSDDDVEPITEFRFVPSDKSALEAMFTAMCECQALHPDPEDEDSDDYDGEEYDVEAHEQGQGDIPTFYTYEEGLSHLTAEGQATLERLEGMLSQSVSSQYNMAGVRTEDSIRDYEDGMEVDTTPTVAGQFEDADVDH
UniProt Q9Y696: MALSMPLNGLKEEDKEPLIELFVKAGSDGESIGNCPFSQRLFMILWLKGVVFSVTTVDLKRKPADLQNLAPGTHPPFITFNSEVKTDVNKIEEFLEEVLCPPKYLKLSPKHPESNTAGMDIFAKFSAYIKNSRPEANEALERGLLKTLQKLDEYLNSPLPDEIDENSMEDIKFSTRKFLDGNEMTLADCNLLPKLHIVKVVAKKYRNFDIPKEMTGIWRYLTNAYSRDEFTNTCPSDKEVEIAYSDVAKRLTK
UniProt Q5EBM0: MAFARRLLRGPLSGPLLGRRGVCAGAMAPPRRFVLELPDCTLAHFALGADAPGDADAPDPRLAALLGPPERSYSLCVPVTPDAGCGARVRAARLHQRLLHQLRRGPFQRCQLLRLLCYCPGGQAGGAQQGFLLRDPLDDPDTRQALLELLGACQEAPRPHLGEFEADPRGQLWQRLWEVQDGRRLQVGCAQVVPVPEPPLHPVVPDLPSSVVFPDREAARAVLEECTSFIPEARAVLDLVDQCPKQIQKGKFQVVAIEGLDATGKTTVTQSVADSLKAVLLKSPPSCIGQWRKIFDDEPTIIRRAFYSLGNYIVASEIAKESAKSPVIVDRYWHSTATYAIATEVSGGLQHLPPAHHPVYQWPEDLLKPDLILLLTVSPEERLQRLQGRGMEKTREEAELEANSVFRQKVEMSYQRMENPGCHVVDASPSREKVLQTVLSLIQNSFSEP
UniProt Q9H8M5: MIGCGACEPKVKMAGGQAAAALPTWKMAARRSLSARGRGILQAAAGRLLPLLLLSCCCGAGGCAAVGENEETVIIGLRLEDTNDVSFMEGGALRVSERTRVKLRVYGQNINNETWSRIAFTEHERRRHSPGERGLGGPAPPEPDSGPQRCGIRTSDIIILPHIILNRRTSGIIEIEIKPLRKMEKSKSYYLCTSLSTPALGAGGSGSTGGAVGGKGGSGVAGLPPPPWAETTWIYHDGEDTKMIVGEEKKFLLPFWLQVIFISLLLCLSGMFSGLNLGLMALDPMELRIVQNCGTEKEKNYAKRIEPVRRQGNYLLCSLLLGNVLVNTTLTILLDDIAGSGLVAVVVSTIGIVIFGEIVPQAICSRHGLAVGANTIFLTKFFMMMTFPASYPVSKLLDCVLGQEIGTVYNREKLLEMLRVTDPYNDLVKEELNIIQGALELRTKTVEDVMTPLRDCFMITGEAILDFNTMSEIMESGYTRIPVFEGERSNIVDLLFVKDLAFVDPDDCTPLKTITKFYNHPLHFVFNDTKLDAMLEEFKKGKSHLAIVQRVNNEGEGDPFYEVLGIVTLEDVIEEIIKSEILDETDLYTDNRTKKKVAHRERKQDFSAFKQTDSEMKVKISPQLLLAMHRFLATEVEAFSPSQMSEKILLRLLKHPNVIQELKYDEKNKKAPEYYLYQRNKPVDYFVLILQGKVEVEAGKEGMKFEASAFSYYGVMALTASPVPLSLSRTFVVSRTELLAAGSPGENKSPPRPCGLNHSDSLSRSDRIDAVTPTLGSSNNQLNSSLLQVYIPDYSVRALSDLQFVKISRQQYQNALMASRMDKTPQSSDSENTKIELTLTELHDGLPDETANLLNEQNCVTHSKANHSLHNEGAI
UniProt Q6PJW8: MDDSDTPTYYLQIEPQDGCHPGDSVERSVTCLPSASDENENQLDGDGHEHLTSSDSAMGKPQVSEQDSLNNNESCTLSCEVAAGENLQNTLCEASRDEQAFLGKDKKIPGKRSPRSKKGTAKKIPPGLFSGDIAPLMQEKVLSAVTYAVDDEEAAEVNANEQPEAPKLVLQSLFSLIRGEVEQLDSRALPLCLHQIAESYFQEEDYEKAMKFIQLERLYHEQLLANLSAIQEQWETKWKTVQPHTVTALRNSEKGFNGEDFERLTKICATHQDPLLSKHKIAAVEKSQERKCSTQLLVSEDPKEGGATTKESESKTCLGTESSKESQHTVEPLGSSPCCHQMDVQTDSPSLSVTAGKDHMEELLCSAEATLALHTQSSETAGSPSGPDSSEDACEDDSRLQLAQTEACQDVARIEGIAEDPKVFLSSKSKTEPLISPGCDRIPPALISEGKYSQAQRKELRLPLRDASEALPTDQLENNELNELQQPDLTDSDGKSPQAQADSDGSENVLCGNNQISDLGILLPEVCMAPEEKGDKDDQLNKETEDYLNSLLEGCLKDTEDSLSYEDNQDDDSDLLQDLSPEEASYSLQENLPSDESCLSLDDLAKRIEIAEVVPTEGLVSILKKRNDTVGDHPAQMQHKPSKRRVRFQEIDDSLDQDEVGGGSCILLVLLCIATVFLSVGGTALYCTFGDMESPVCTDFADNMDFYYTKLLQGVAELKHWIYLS
UniProt Q96DG6: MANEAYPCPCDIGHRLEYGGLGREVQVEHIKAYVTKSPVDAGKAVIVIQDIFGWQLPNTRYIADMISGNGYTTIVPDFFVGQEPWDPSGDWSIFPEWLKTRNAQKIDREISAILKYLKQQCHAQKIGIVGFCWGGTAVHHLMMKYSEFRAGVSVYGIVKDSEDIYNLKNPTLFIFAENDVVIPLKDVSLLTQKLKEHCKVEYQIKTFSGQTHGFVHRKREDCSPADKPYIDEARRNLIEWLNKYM
UniProt Q96BR5: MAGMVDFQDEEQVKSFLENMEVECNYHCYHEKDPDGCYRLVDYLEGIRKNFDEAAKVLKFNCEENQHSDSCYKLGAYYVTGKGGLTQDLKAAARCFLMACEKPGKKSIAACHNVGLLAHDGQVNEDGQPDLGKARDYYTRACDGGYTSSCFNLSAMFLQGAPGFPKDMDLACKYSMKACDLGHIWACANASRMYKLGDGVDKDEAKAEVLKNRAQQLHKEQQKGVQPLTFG
UniProt Q9C0A0: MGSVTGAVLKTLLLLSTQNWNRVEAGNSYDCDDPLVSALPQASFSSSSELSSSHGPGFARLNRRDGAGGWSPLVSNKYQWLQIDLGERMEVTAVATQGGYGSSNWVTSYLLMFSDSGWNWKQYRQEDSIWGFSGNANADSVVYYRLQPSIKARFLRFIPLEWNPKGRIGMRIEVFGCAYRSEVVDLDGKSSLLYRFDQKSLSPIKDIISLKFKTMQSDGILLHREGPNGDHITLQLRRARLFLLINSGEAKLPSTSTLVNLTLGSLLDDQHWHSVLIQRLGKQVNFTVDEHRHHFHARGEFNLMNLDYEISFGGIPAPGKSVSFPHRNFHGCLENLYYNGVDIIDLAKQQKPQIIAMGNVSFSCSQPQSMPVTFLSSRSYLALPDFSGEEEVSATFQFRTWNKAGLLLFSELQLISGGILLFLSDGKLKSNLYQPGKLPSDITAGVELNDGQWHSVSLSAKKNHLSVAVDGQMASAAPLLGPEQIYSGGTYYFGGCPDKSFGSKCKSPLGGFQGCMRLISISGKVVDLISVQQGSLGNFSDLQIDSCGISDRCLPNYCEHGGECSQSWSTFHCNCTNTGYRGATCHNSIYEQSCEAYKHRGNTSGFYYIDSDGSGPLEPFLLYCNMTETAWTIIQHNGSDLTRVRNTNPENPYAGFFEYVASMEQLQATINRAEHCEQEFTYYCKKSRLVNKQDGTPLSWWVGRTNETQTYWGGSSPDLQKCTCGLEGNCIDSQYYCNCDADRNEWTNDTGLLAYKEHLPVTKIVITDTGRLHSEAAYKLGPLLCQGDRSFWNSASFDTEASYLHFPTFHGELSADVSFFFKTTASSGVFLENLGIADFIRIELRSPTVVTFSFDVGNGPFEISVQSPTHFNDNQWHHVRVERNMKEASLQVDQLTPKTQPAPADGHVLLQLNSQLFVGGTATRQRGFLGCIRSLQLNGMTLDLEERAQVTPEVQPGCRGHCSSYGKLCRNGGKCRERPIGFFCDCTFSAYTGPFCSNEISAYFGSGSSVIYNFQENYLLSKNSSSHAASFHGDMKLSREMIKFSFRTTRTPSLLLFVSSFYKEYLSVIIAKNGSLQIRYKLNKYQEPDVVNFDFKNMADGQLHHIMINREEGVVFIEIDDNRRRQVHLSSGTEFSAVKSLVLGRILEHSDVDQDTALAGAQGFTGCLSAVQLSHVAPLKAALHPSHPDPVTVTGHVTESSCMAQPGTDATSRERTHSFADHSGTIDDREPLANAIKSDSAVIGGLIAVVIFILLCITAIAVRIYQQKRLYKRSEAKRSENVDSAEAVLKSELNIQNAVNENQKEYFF
UniProt P62633: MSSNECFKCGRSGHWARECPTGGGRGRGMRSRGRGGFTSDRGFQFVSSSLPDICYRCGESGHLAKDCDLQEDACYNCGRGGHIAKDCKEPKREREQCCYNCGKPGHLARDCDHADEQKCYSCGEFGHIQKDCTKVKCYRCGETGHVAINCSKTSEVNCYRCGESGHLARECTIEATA
UniProt Q92600, whole entry, looked up: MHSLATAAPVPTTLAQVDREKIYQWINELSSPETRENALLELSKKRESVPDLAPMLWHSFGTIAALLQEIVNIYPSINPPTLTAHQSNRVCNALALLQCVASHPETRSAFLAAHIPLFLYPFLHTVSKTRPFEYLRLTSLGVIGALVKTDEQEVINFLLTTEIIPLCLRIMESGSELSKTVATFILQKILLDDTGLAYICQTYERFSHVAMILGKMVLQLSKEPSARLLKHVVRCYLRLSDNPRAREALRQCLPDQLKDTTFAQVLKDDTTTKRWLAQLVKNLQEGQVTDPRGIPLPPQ
UniProt Q9H078: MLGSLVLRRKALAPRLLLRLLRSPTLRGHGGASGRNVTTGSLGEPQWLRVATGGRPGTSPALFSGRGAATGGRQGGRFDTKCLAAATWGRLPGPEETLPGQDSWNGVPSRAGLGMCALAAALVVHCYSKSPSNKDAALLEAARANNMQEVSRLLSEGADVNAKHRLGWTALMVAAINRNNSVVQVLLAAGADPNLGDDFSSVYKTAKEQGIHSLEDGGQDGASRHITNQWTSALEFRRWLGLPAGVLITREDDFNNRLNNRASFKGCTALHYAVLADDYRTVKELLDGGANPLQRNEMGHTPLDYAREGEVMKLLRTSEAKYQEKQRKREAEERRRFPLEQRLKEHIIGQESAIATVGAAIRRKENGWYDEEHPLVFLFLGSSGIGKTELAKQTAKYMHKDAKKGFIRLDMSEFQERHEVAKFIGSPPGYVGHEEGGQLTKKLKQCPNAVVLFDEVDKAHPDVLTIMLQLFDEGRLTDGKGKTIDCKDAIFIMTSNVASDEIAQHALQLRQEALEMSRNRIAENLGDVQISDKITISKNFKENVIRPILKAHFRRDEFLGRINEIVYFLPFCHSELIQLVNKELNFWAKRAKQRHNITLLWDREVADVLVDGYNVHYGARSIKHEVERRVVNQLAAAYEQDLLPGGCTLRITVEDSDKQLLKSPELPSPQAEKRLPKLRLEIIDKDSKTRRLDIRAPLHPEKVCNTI

Tests used:
Assay in all cases: log2 fold change, soluble protein after heating vs DMSO (PISA); higher = thermal stabilisation; K562 cells, 10 uM, 30 min; active = over 0.2 and 3.5 SD of the protein, either way, in both replicates (recomputed)
[1] = compound: CC[C@@H]1C(=O)N(C)c2cnc(Nc3ccc(C(=O)NC4CCN(C)CC4)cc3OC)nc2N1C1CCCC1
Procedure, shortened: (§1)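 Values are thermal stability changes relative to control samples and are taken from duplicates. They are stated as log2 fold changes. Before quantification by TMTpro 16plex LC-MS/MS with equalised channel sums, K562 cells at 2×10^6 cells/mL were treated with 10 μM compound for 30 min, heated in aliquots for 3 min across 48°C-58°C, pooled, extracted in PBS with 0.5% NP-40 at 4°C, and centrifuged at 21,000xg for 90 min to give the soluble supernatant.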

volasertib = compound: CC[C@@H]1C(=O)N(C)c2cnc(Nc3ccc(C(=O)N[C@H]4CC[C@H](N5CCN(CC6CC6)CC5)CC4)cc3OC)nc2N1C(C)C [volasertib]
Procedure, shortened: as §1

[2] = compound: CC[C@H](C)N1C=C(C2=C(C=C(C=C21)C3=CN=C(C=C3)N4CCNCC4)C(=O)NCC5=C(C=C(NC5=O)C)C)C
Procedure, shortened: as §1

epoxomicin = compound: CC[C@H](C)[C@@H](C(=O)N[C@@H]([C@@H](C)O)C(=O)N[C@@H](CC(C)C)C(=O)[C@]1(CO1)C)NC(=O)[C@H]([C@@H](C)CC)N(C)C(=O)C [epoxomicin]
Procedure, shortened: as §1

[3] = compound: CCn1c(C(=O)N(C2CC2)C2CC2)cc2c3c(ncn3C)c(Nc3cc(C)n(C)n3)nc21
Procedure, shortened: as §1

[4] = compound: CCn1cc(-c2ccnc3[nH]c(-c4cccc(CN(C)C)c4)cc23)c(-c2ccc(NC(=O)N(C)C)cc2)n1
Procedure, shortened: as §1

[5] = compound: CN(C)CC(=O)Nc1ccc2[nH]c(=O)c3ccccc3c2c1
Procedure, shortened: as §1

rosiglitazone = compound: CN(CCOC1=CC=C(C=C1)C[C@H]2C(=O)NC(=O)S2)C3=CC=CC=N3 (racemic) [rosiglitazone]
Procedure, shortened: as §1

[6] = compound: CN1C2=C(C3=C1C(=O)N(N=C3)CC4=CC(=CC=C4)N)SC(=C2)S(=O)C
Procedure, shortened: as §1

[7] = compound: CN1CCC(CNc2ccc3ncc(-c4cccc(OC(F)(F)F)c4)n3n2)CC1
Procedure, shortened: as §1

saracatinib = compound: CN1CCN(CCOc2cc(OC3CCOCC3)c3c(Nc4c(Cl)ccc5c4OCO5)ncnc3c2)CC1 [saracatinib]
Procedure, shortened: as §1

sotrastaurin = compound: CN1CCN(c2nc(C3=C(c4c[nH]c5ccccc45)C(=O)NC3=O)c3ccccc3n2)CC1 [sotrastaurin]
Procedure, shortened: as §1

alvocidib = compound: CN1CC[C@H](c2c(O)cc(O)c3c(=O)cc(-c4ccccc4Cl)oc23)[C@H](O)C1 [alvocidib]
Procedure, shortened: as §1

Tubastatin A = compound: CN1CCc2c(c3ccccc3n2Cc2ccc(C(=O)NO)cc2)C1 [Tubastatin A]
Procedure, shortened: as §1

[8] = compound: CNC(=O)C1=CC=CC=C1NC2=NC(=NC=C2Cl)NC3=C(C=C(C=C3)N4CCOCC4)OC
Procedure, shortened: as §1

defactinib = compound: CNC(=O)c1ccc(Nc2ncc(C(F)(F)F)c(NCc3nccnc3N(C)S(C)(=O)=O)n2)cc1 [defactinib]
Procedure, shortened: as §1

rucaparib = compound: CNCc1ccc(-c2[nH]c3cc(F)cc4c3c2CCNC4=O)cc1 [rucaparib]
Procedure, shortened: as §1

[9] = compound: CNc1nc(-c2ccc3c(N)n[nH]c3c2)cc(N2C[C@@H](C(=O)NC3CCCCC3)CC[C@H]2C)n1
Procedure, shortened: as §1

encorafenib = compound: COC(=O)N[C@@H](C)CNc1nccc(-c2cn(C(C)C)nc2-c2cc(Cl)cc(NS(C)(=O)=O)c2F)n1 [encorafenib]
Procedure, shortened: as §1

[10] = compound: COC(=O)[C@H](CCSC)NC(=O)C1=C(C=C(C=C1)NC[C@H](CS)N)C2=CC=CC=C2
Procedure, shortened: as §1

Measured: log2 fold change

CLIP4 (UniProt Q8N3C7)
inactive: [1] 0.044 | volasertib 0.06 | [2] -0.035 | epoxomicin 0.003 | [3] 0.023 | [4] -0.031 | [5] 0.046 | rosiglitazone 0.021 | [6] -0.037 | [7] 0.097 | saracatinib -0.018 | sotrastaurin 0.103 | alvocidib -0.02 | Tubastatin A -0.054 | [8] -0.01 | defactinib 0.012 | rucaparib -0.009 | [9] -0.045 | encorafenib -0.028 | [10] 0.045

CMAS (UniProt Q8NFW8)
inactive: [1] 0.098 | volasertib 0.037 | [2] -0.048 | epoxomicin -0.085 | [3] -0.016 | [4] 0.099 | [5] -0.018 | rosiglitazone -0.052 | [6] 0.125 | [7] 0.05 | saracatinib -0.072 | sotrastaurin 0.056 | alvocidib 0.135 | Tubastatin A 0 | [8] -0.052 | defactinib 0.169 | rucaparib 0.16 | [9] 0.059 | encorafenib 0.126 | [10] 0.018

CLTA isoform 2 (UniProt P09496)
inactive: [1] 0.148 | volasertib 0.242 | [2] -0.158 | epoxomicin 0.222 | [3] 0.093 | [4] 0.044 | [5] -0.097 | rosiglitazone -0.046 | [6] -0.036 | [7] 0.08 | saracatinib 0.141 | sotrastaurin 0.037 | alvocidib 0.123 | Tubastatin A 0.024 | [8] 0.026 | defactinib 0.101 | rucaparib -0.14 | [9] 0.014 | encorafenib 0.017 | [10] 0.042

Retrieved one by one from the entries so far, 2 records:
CLIP4 (UniProt Q8N3C7)
inactive: [1] 0.044 | volasertib 0.06 | [2] -0.035 | epoxomicin 0.003 | [3] 0.023 | [4] -0.031 | [5] 0.046 | rosiglitazone 0.021 | [6] -0.037 | [7] 0.097 | saracatinib -0.018 | sotrastaurin 0.103 | alvocidib -0.02 | Tubastatin A -0.054 | [8] -0.01 | defactinib 0.012 | rucaparib -0.009 | [9] -0.045 | encorafenib -0.028 | [10] 0.045

CLTA isoform 2 (UniProt P09496)
inactive: [1] 0.148 | volasertib 0.242 | [2] -0.158 | epoxomicin 0.222 | [3] 0.093 | [4] 0.044 | [5] -0.097 | rosiglitazone -0.046 | [6] -0.036 | [7] 0.08 | saracatinib 0.141 | sotrastaurin 0.037 | alvocidib 0.123 | Tubastatin A 0.024 | [8] 0.026 | defactinib 0.101 | rucaparib -0.14 | [9] 0.014 | encorafenib 0.017 | [10] 0.042

Further records follow.

CLPTM1 (UniProt O96005)
inactive: [1] 0.005 | volasertib -0.072 | [2] 0.014 | epoxomicin -0.009 | [3] 0.004 | [4] 0.018 | [5] 0.001 | rosiglitazone 0.009 | [6] 0.028 | [7] 0.044 | saracatinib -0.011 | sotrastaurin -0.001 | alvocidib -0.016 | Tubastatin A 0.022 | [8] 0.003 | defactinib -0.018 | rucaparib -0.016 | [9] -0.042 | encorafenib 0.057 | [10] -0.04

CMC1 (UniProt Q7Z7K0)
inactive: [1] -0.033 | volasertib 0.059 | [2] -0.034 | epoxomicin 0.028 | [3] -0.04 | [4] 0.031 | [5] -0.15 | rosiglitazone -0.039 | [6] 0.025 | [7] 0 | saracatinib 0.128 | sotrastaurin 0.004 | alvocidib 0.159 | Tubastatin A -0.013 | [8] -0.001 | defactinib 0 | rucaparib -0.027 | [9] -0.178 | encorafenib -0.048 | [10] 0.173

CLNS1A (UniProt P54105)
inactive: [1] -0.077 | volasertib -0.079 | [2] 0.01 | epoxomicin 0.038 | [3] 0.036 | [4] -0.017 | [5] -0.035 | rosiglitazone -0.024 | [6] -0.042 | [7] 0.023 | saracatinib 0.035 | sotrastaurin -0.012 | alvocidib -0.034 | Tubastatin A -0.001 | [8] -0.002 | defactinib -0.098 | rucaparib 0.008 | [9] 0.026 | encorafenib -0.008 | [10] -0.003

CLIC4 (UniProt Q9Y696)
inactive: [1] -0.043 | volasertib -0.038 | [2] 0.023 | epoxomicin 0.046 | [3] -0.006 | [4] 0.008 | [5] -0.002 | rosiglitazone 0.015 | [6] -0.044 | [7] -0.019 | saracatinib 0.008 | sotrastaurin 0.014 | alvocidib -0.024 | Tubastatin A -0.007 | [8] -0.002 | defactinib -0.001 | rucaparib 0.002 | [9] -0.024 | encorafenib -0.012 | [10] 0.017

CMPK2 (UniProt Q5EBM0)
inactive: [1] 0.139 | volasertib 0.117 | [2] -0.015 | epoxomicin 0.037 | [3] -0.039 | [4] -0.062 | [5] -0.021 | rosiglitazone 0.038 | [6] -0.015 | [7] -0.057 | saracatinib 0.013 | sotrastaurin -0.006 | alvocidib -0.07 | Tubastatin A -0.005 | [8] 0.008 | defactinib -0.035 | rucaparib -0.006 | [9] 0.004 | encorafenib 0.031 | [10] 0

CNNM2 (UniProt Q9H8M5)
inactive: [1] -0.058 | volasertib -0.017 | [2] 0.042 | epoxomicin 0.03 | [3] -0.005 | [4] -0.234 | [5] -0.229 | rosiglitazone -0.031 | [6] 0.058 | [7] 0.036 | saracatinib -0.011 | sotrastaurin 0 | alvocidib 0.073 | Tubastatin A 0.106 | [8] -0.075 | defactinib 0.059 | rucaparib 0.059 | [9] 0.024 | encorafenib 0.061 | [10] 0.113

CNST (UniProt Q6PJW8)
inactive: [1] 0.039 | volasertib -0.047 | [2] 0.018 | epoxomicin 0.044 | [3] -0.018 | [4] -0.083 | [5] -0.01 | rosiglitazone 0.011 | [6] -0.058 | [7] 0.019 | saracatinib 0.022 | sotrastaurin -0.031 | alvocidib -0.043 | Tubastatin A -0.019 | [8] 0.004 | defactinib -0.036 | rucaparib -0.012 | [9] -0.02 | encorafenib -0.023 | [10] 0.088

CMBL (UniProt Q96DG6)
inactive: [1] 0.112 | volasertib 0.196 | [2] -0.036 | epoxomicin -0.029 | [3] 0.025 | [4] -0.047 | [5] 0.011 | rosiglitazone 0.004 | [6] -0.049 | [7] -0.015 | saracatinib -0.012 | sotrastaurin 0.053 | alvocidib 0.02 | Tubastatin A 0.15 | [8] -0.022 | defactinib -0.005 | rucaparib -0.035 | [9] -0.02 | encorafenib -0.051 | [10] -0.007

COA7 (UniProt Q96BR5)
inactive: [1] -0.012 | volasertib 0.024 | [2] 0.017 | epoxomicin 0.046 | [3] 0.037 | [4] 0 | [5] -0.013 | rosiglitazone 0.023 | [6] -0.029 | [7] -0.065 | saracatinib 0.018 | sotrastaurin -0.015 | alvocidib 0.04 | Tubastatin A -0.044 | [8] 0.016 | defactinib 0.002 | rucaparib -0.093 | [9] -0.068 | encorafenib 0.002 | [10] 0.046

CNTNAP4 (UniProt Q9C0A0)
inactive: [1] 0.199 | volasertib 0.237 | [2] 0.056 | epoxomicin -0.027 | [3] 0.074 | [4] 0.198 | [5] -0.071 | rosiglitazone -0.071 | [6] 0.285 | [7] 0.179 | saracatinib -0.052 | sotrastaurin 0.008 | alvocidib 0.24 | Tubastatin A 0.03 | [8] 0.021 | defactinib 0.25 | rucaparib 0.388 | [9] 0.016 | encorafenib 0.139 | [10] 0.003

CNBP isoform 6 (UniProt P62633)
inactive: [1] 0.07 | volasertib 0.101 | [2] -0.037 | epoxomicin -0.04 | [3] 0.046 | [4] 0.06 | [5] -0.1 | rosiglitazone -0.055 | [6] 0.035 | [7] 0.117 | saracatinib 0.064 | sotrastaurin 0.059 | alvocidib 0.147 | Tubastatin A -0.101 | [8] 0.001 | defactinib 0.062 | rucaparib 0.099 | [9] -0.005 | encorafenib -0.004 | [10] 0.075

CNOT9 isoform 2 (UniProt Q92600)
inactive: [1] -0.028 | volasertib -0.165 | [2] 0.024 | epoxomicin -0.007 | [3] -0.006 | [4] -0.007 | [5] 0.016 | rosiglitazone 0.014 | [6] -0.02 | [7] -0.053 | saracatinib 0.012 | sotrastaurin -0.025 | alvocidib -0.055 | Tubastatin A -0.012 | [8] 0.014 | defactinib -0.023 | rucaparib 0.046 | [9] 0.004 | encorafenib 0.076 | [10] -0.014

CLPB isoform 2 (UniProt Q9H078)
inactive: [1] -0.084 | volasertib -0.006 | [2] 0.006 | epoxomicin 0.019 | [3] 0 | [4] 0.018 | [5] 0.042 | rosiglitazone 0.057 | [6] -0.087 | [7] -0.095 | saracatinib 0.064 | sotrastaurin -0.031 | alvocidib -0.043 | Tubastatin A 0 | [8] -0.017 | defactinib -0.047 | rucaparib 0.018 | [9] 0.047 | encorafenib -0.002 | [10] -0.045
